The reference is the same well before dosing, and untreated signal decays as well.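 Fibroblast labels denote human fibroblasts, mainly primary ones from uterus (C12385, HUF), lung (H6013), bone (Hs27A), adrenal (HADF) and skin (WS1), plus mammary HMF and breast cancer-associated Hs343T. Cancer cells are basal-like or mesenchymal-like triple-negative breast cancer lines. A hit is a response shift exceeding 3x replicate standard deviation. The tissue of the other fibroblasts is not given here.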
Test system: HCC1143
Test: relative JC-1 red fluorescence (viability) vs pre-drug, coculture with fibroblast (fraction); higher = more viable cancer cells
Protocol: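 JC-1 labelled TNBC cells cocultured 1:1 (1,500 cells each) with CellTrace Violet stained primary or stromal fibroblasts in 384-well plates in FluoroBrite medium, treated with one of 42 anticancer drugs at 0.1, 1, 10 or 100 uM. JC-1 red fluorescence (mitochondrial integrity in cancer cells only) was read by plate reader every 8 h for 72 h. Values are normalised to each well's pre-drug value. The stock of one drug was tenfold lower, so its dose labels may be too high.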

O=NN(CCCl)C(=O)NC1CCCCC1 [Lomustine]
relative JC-1 red fluorescence
Conditions | 8 h | 16 h | 24 h | 32 h | 40 h | 48 h | 56 h | 64 h | 72 h
0.1 µM, coculture fibroblast: C12385 | 0.8433 | 0.7797 | 0.723 | 0.664 | 0.593 | 0.546 | 0.51 | 0.477 | 0.466
0.1 µM, coculture fibroblast: H6013 | 0.736 | 0.685 | 0.644 | 0.625 | 0.576 | 0.57 | 0.543 | 0.523 | 0.491
0.1 µM, coculture fibroblast: H6019 | 0.82 | 0.756 | 0.724 | 0.669 | 0.627 | 0.597 | 0.542 | 0.496 | 0.461
0.1 µM, coculture fibroblast: H6076 | 0.83703 | 0.846 | 0.819 | 0.778 | 0.731 | 0.723 | 0.704 | 0.688 | 0.696
0.1 µM, coculture fibroblast: H6231 | 0.787 | 0.764 | 0.696 | 0.615 | 0.599 | 0.571 | 0.536 | 0.498 | 0.483
0.1 µM, coculture fibroblast: HADF | 0.748 | 0.717 | 0.687 | 0.691 | 0.621 | 0.604 | 0.579 | 0.564 | 0.54
0.1 µM, coculture fibroblast: HCFa | 0.797 | 0.748 | 0.72 | 0.693 | 0.627 | 0.612 | 0.574 | 0.541 | 0.517
0.1 µM, coculture fibroblast: HCPF | 0.824 | 0.837 | 0.794 | 0.715 | 0.736 | 0.718 | 0.689 | 0.668 | 0.671
0.1 µM, coculture fibroblast: HHSteC | 0.86 | 0.819 | 0.788 | 0.747 | 0.67283 | 0.649 | 0.613 | 0.581 | 0.54
0.1 µM, coculture fibroblast: HMF | 0.806 | 0.806 | 0.725 | 0.6552 | 0.632 | 0.604 | 0.567 | 0.534 | 0.512
0.1 µM, coculture fibroblast: HPFa | 0.86057 | 0.783 | 0.747 | 0.65 | 0.595 | 0.554 | 0.499 | 0.445 | 0.408
0.1 µM, coculture fibroblast: HUF | 0.842 | 0.779 | 0.722 | 0.649 | 0.598 | 0.5793 | 0.5327 | 0.5033 | 0.487
0.1 µM, coculture fibroblast: Hs5 | 0.846 | 0.904 | 0.847 | 0.786 | 0.742 | 0.701 | 0.678 | 0.653 | 0.645
0.1 µM, coculture fibroblast: Hs27A | 0.702 | 0.651 | 0.613 | 0.62 | 0.504 | 0.494 | 0.451 | 0.424 | 0.399
0.1 µM, coculture fibroblast: Hs343T | 0.812 | 0.868 | 0.816 | 0.7114 | 0.707 | 0.657 | 0.6131 | 0.5849 | 0.551
0.1 µM, coculture fibroblast: WS1 | 0.843 | 0.7603 | 0.713 | 0.635 | 0.58 | 0.544 | 0.503 | 0.479 | 0.462
1 µM, coculture fibroblast: C12385 | 0.8698 | 0.787 | 0.712 | 0.64 | 0.574 | 0.517 | 0.464 | 0.418 | 0.392
1 µM, coculture fibroblast: H6013 | 0.739 | 0.642 | 0.59 | 0.555 | 0.485 | 0.47 | 0.437 | 0.418 | 0.372
1 µM, coculture fibroblast: H6019 | 0.808 | 0.728 | 0.673 | 0.613 | 0.56 | 0.534 | 0.48 | 0.439 | 0.4
1 µM, coculture fibroblast: H6076 | 0.808 | 0.7578 | 0.712 | 0.682 | 0.636 | 0.617 | 0.5856 | 0.567 | 0.574
1 µM, coculture fibroblast: H6231 | 0.82 | 0.815 | 0.731 | 0.635 | 0.6356 | 0.602 | 0.56 | 0.526 | 0.499
1 µM, coculture fibroblast: HADF | 0.742 | 0.664 | 0.645 | 0.653 | 0.571 | 0.549 | 0.517 | 0.488 | 0.458
1 µM, coculture fibroblast: HCFa | 0.751 | 0.662 | 0.6134 | 0.585 | 0.488 | 0.4439 | 0.3862 | 0.3528 | 0.32
1 µM, coculture fibroblast: HCPF | 0.831 | 0.842 | 0.804 | 0.703 | 0.728 | 0.705 | 0.682 | 0.652 | 0.651
1 µM, coculture fibroblast: HHSteC | 0.839 | 0.755 | 0.726 | 0.685 | 0.623 | 0.592 | 0.543 | 0.506 | 0.445
1 µM, coculture fibroblast: HMF | 0.786 | 0.7501 | 0.679 | 0.6044 | 0.571 | 0.536 | 0.4982 | 0.4641 | 0.439
1 µM, coculture fibroblast: HPFa | 0.917 | 0.8326 | 0.802 | 0.714 | 0.648 | 0.602 | 0.534 | 0.48 | 0.431
1 µM, coculture fibroblast: HUF | 0.8668 | 0.777 | 0.72 | 0.643 | 0.587 | 0.554 | 0.497 | 0.457 | 0.427
1 µM, coculture fibroblast: Hs5 | 0.864 | 0.857 | 0.831 | 0.806 | 0.751 | 0.719 | 0.693 | 0.657 | 0.629
1 µM, coculture fibroblast: Hs27A | 0.713 | 0.641 | 0.62 | 0.636 | 0.515 | 0.495 | 0.448 | 0.41 | 0.396
1 µM, coculture fibroblast: Hs343T | 0.798 | 0.809 | 0.735 | 0.634 | 0.626 | 0.581 | 0.521 | 0.491 | 0.456
1 µM, coculture fibroblast: WS1 | 0.85 | 0.757 | 0.699 | 0.634 | 0.576 | 0.542 | 0.496 | 0.456 | 0.436
10 µM, coculture fibroblast: C12385 | 0.822 | 0.757 | 0.7 | 0.631 | 0.564 | 0.528 | 0.497 | 0.462 | 0.447
10 µM, coculture fibroblast: H6013 | 0.7714 | 0.705 | 0.678 | 0.666 | 0.609 | 0.603 | 0.579 | 0.562 | 0.533
10 µM, coculture fibroblast: H6019 | 0.818 | 0.753 | 0.71 | 0.657 | 0.621 | 0.593 | 0.547 | 0.5 | 0.454
10 µM, coculture fibroblast: H6076 | 0.79415 | 0.788 | 0.753 | 0.7125 | 0.683 | 0.677 | 0.66 | 0.642 | 0.641
10 µM, coculture fibroblast: H6231 | 0.822 | 0.778 | 0.715 | 0.664 | 0.62 | 0.6 | 0.571 | 0.539 | 0.53
10 µM, coculture fibroblast: HADF | 0.746 | 0.706 | 0.68 | 0.686 | 0.603 | 0.578 | 0.556 | 0.532 | 0.532
10 µM, coculture fibroblast: HCFa | 0.844 | 0.844 | 0.838 | 0.797 | 0.803 | 0.793 | 0.772 | 0.753 | 0.617
10 µM, coculture fibroblast: HCPF | 0.799 | 0.784 | 0.732 | 0.679 | 0.656 | 0.627 | 0.598 | 0.573 | 0.568
10 µM, coculture fibroblast: HHSteC | 0.836 | 0.794 | 0.756 | 0.721 | 0.65 | 0.617 | 0.575 | 0.554 | 0.509
10 µM, coculture fibroblast: HMF | 0.766 | 0.761 | 0.696 | 0.638 | 0.6102 | 0.582 | 0.555 | 0.523 | 0.507
10 µM, coculture fibroblast: HPFa | 0.8765 | 0.796 | 0.7534 | 0.6644 | 0.607 | 0.575 | 0.525 | 0.479 | 0.44
10 µM, coculture fibroblast: HUF | 0.8586 | 0.745 | 0.706 | 0.637 | 0.582 | 0.559 | 0.515 | 0.488 | 0.471
10 µM, coculture fibroblast: Hs5 | 0.847 | 0.834 | 0.8006 | 0.78 | 0.707 | 0.676 | 0.648 | 0.629 | 0.642
10 µM, coculture fibroblast: Hs27A | 0.702 | 0.636 | 0.591 | 0.594 | 0.48 | 0.472 | 0.433 | 0.409 | 0.397
10 µM, coculture fibroblast: Hs343T | 0.813 | 0.8 | 0.749 | 0.693 | 0.659 | 0.627 | 0.59 | 0.564 | 0.539
10 µM, coculture fibroblast: WS1 | 0.834 | 0.765 | 0.726 | 0.665 | 0.617 | 0.593 | 0.56 | 0.525 | 0.491
100 µM, coculture fibroblast: C12385 | 0.7573 | 0.699 | 0.648 | 0.594 | 0.539 | 0.51 | 0.484 | 0.454 | 0.44
100 µM, coculture fibroblast: H6013 | 0.676 | 0.608 | 0.562 | 0.544 | 0.502 | 0.5 | 0.487 | 0.482 | 0.438
100 µM, coculture fibroblast: H6019 | 0.779 | 0.697 | 0.644 | 0.596 | 0.561 | 0.559 | 0.53 | 0.504 | 0.482
100 µM, coculture fibroblast: H6076 | 0.753 | 0.702 | 0.667 | 0.65 | 0.592 | 0.589 | 0.565 | 0.55 | 0.56
100 µM, coculture fibroblast: H6231 | 0.759 | 0.76 | 0.681 | 0.6 | 0.579 | 0.552 | 0.517 | 0.477 | 0.4658
100 µM, coculture fibroblast: HADF | 0.695 | 0.621 | 0.572 | 0.555 | 0.477 | 0.457 | 0.433 | 0.415 | 0.396
100 µM, coculture fibroblast: HCFa | 0.709 | 0.666 | 0.61 | 0.583 | 0.519 | 0.498 | 0.468 | 0.45 | 0.415
100 µM, coculture fibroblast: HCPF | 0.7598 | 0.776 | 0.699 | 0.608 | 0.607 | 0.574 | 0.535 | 0.503 | 0.486
100 µM, coculture fibroblast: HHSteC | 0.7586 | 0.705 | 0.682 | 0.656 | 0.599 | 0.579 | 0.553 | 0.535 | 0.476
100 µM, coculture fibroblast: HMF | 0.7304 | 0.7705 | 0.6764 | 0.567 | 0.5479 | 0.5166 | 0.4738 | 0.447 | 0.4255
100 µM, coculture fibroblast: HPFa | 0.817 | 0.722 | 0.686 | 0.596 | 0.55 | 0.53 | 0.485 | 0.453 | 0.423
100 µM, coculture fibroblast: HUF | 0.8 | 0.65 | 0.578 | 0.505 | 0.458 | 0.443 | 0.402 | 0.387 | 0.384
100 µM, coculture fibroblast: Hs5 | 0.8121 | 0.815 | 0.76133 | 0.729 | 0.665 | 0.632 | 0.608 | 0.59 | 0.587
100 µM, coculture fibroblast: Hs27A | 0.701 | 0.6529 | 0.6178 | 0.625 | 0.521 | 0.525 | 0.505 | 0.502 | 0.475
100 µM, coculture fibroblast: Hs343T | 0.7706 | 0.774 | 0.704 | 0.6309 | 0.599 | 0.563 | 0.525 | 0.497 | 0.462
100 µM, coculture fibroblast: WS1 | 0.7503 | 0.681 | 0.653 | 0.607 | 0.573 | 0.557 | 0.52 | 0.495 | 0.482

Reference: the supplement of paper PMC6078165
